Measurements from paper PMC5058708.
Where two headings read alike, the source gives them in different places. No constants are given. Whether binding was seen depends on the method and setting. Binding seen in cells or lysates may run through a third protein. Here binding means that the protein was enriched with, or labelled near, the bait; the list need not be complete.

Sequences of proteins named here, by UniProt entry; tags and fusion partners are left off. Residues count along the entry.
UniProt P61589: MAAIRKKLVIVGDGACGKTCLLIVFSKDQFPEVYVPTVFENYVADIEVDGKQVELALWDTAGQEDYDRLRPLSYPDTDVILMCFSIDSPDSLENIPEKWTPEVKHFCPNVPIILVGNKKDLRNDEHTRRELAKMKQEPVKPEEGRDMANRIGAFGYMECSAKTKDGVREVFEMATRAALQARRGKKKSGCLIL
UniProt Q66HG5, residues 29-663: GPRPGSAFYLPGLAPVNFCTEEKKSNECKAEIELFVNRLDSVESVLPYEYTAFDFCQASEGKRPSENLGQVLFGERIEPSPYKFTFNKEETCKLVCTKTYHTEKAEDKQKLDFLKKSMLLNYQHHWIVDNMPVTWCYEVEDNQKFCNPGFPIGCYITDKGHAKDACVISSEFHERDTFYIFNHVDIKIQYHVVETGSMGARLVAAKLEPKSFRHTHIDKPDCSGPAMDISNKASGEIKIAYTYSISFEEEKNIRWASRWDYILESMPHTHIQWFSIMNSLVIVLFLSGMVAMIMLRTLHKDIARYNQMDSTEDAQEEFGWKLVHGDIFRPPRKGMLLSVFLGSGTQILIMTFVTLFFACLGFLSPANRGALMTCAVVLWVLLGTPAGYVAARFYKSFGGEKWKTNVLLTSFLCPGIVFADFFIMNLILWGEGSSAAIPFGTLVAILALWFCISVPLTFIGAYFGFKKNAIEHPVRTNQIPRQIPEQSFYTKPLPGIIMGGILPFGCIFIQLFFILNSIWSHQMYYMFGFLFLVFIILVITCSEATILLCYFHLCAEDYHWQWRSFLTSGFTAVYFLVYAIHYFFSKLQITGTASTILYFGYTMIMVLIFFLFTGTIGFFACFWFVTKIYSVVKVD
UniProt O35763: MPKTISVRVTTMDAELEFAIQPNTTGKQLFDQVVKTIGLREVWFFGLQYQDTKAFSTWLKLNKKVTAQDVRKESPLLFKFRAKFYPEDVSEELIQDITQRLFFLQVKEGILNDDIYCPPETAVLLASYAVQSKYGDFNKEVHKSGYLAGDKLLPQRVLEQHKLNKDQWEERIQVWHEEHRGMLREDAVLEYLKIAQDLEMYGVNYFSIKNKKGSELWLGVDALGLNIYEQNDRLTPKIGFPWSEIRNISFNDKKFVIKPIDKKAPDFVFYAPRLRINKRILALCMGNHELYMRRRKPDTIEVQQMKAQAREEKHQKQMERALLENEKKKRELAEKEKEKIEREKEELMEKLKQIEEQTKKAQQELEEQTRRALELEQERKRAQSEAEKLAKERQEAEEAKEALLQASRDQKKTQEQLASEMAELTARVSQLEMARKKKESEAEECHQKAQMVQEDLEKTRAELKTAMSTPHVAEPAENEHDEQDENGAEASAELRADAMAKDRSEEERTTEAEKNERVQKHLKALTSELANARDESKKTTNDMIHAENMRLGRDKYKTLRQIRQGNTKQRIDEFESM
UniProt A0ACM8QGX5: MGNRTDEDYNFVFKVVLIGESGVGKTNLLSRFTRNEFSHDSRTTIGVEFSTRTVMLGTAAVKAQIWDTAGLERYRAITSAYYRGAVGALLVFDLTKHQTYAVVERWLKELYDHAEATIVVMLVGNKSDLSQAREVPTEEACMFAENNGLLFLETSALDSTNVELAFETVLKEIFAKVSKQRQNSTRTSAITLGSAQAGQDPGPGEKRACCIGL

T1: claudin7 (rat (endogenous in ASML)) (UniProt Q9Z1L1)
T1 sequence (chain, palmitoylated (palmitoylation is prevented by mutating AA184 and AA186)): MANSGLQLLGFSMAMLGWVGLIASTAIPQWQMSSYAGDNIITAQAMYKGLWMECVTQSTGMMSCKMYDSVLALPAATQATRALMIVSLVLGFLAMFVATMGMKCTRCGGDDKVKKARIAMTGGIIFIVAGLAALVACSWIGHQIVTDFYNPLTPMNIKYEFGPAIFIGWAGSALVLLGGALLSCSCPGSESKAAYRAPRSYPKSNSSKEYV


Key:
Test in all cases: affinity purification with mass spectrometry; mild lysis (Lubrol); ASML^wt lysates precipitated with anti-EpC and anti-cld7, ASML-EpC^kd, -EpC^mAG and -cld7^mPalm lysates with anti-cld7; SDS-PAGE, nanoLC-ESI-MS/MS on an LTQ orbitrap
[1] = biological target: T1, claudin7 (rat (endogenous in ASML))
[2] = biological target: cld7 with a mutation in the palmitoylation site (UniProt Q9Z1L1)
[3] = biological target: cld7 with a mutation in the palmitoylation site (UniProt Q9Z1L1); remark: listed apart in the source
[4] = biological target: T1, claudin7 (rat (endogenous in ASML)); remark: listed apart in the source

binding [1] | Molecule | further results
binds | RhoA (from UniProt P61589 1-193) | 
 | TM9SF2 (from UniProt Q66HG5 29-663) | binding [2]: binds
 | aldose reductase (from UniProt P07943 1-316) (enzyme) | binding [2]: binds
binds | moesin (from UniProt O35763 1-577) | 
binds | myoferlin (rat (endogenous in ASML)) | 
binds | rab25 (from UniProt A0ACM8QGX5 1-213) | 
 | lactadherin 2 (protein, UniProt P70490 23-427) ASGDFCDSSLCLNGGTCLMGQDNDIYCLCPEGFTGLVCNETEKGPCSPNPCFHDAKCLVTEDTQRGDIFTEYICQCPVGYSGIHCELGCSTKLGLEGGAIADSQISASSVYMGFMGLQRWGPELARLYRTGIVNAWTASSYDSKPWIQVDFLRKMRVSGVMTQGASRAGRAEYLKTFKVAYSLDGRRFEFIQDESGTGDKEFMGNQDNNSLKINMFNPTLEAQYIRLYPVSCHRGCTLRFELLGCELHGCSEPLGLKNNTIPDSQITASSSYKTWNLRAFGWYPHLGRLDNQGKINAWTAQSNSAKEWLQVDLGTQKKVTGIITQGARDFGHIQYVASYKVAHSDDGVQWTVYEEQGTSKVFQGNLDNNSHKKNIFEKPFMARYVRVLPLSWHNRITLRLELLGC | binding [3]: binds
 | Sec31a (protein, UniProt Q9Z2Q1 1-1249) MKLKEIDRTAMQAWSPAQNHPIYLATGTSAQQLDATFSTNASLEIFELDLSDPSLDMKSCATFSSSHRYHKLIWGPHKMDSKGDVSGVLIAGGENGNIILYDPSKIIAGDKEVVIAQKDKHTGPVRALDVNIFQTNLVASGANESEIYIWDLNNFATPMTPGAKTQPPEDISCIAWNRQVQHILASASPSGRATVWDLRKNEPIIKVSDHSNRMHCSGLAWHPDVATQMVLASEDDRLPVVQMWDLRFASSPLRVLENHARGILAIAWSMADPELLLSCGKDAKILCSNPNTGEVLYELPTNTQWCFDIQWCPRNPAVLSAASFDGRIRVYSIMGGSIDGLRQKQVDKLSSSFGNLDPFGTGQPLPPLQIPQQTSQHSIVLPLKKPPKWIRRPVGASFSFGGKLVTFENVTGQPQQGAEQPRRQPVFISQVVTEKDFLSRSEQLQHVVQSQGFISYCQKKIDASQTDFEKNVWSFLKVNFEEDSRGKYLELLGYRREDLGEKIALALNRVDGSDVALKDSDRVAQSDGEESPAEEGQLLGERIKEEKQECDFLPSAGGGTFNISVSGDIDGLITRALLTGNFESAVDLCLHDNRMADAIILAIAGGQELLAQTQKKYFAKSQSKITRLITAVVMKNWKEIVESCDLKNWREALAAVLTYAKPDEFSALCDLLGARLESEGDSLLRTQACLCYICAGNVERLVACWTKAQDGSNPLSLQDLIEKVVILRKAVQLTQALDTNTVGALLAEKMSQYANLLAAQGSIAAALAFLPDNTNQPDIVQLRDRLCRAQGRSVPGQESSRSSYEGQPLPKGGPGPLAGHPQVSRVQSQQYYPQVRIAPTVTTWSDRTPTALPSHPPAACPSDTQGGNPPPPGFIMHGNVVPNSPAPLPTSPGHMHSQPPPYPQPQPYQPAQQYSLGTGGSAVYRPQQPVAPPASKRYPNAPYVSPVASYSGQPHMYTAQPASSPTSSSAPLPPPPSSGASFQHGGPGAPPSSSAYALPPGTTGTPPAASELPASQRTGPQNGWNDPPALNRVPKKKKLPENFMPPVPITSPIMNPGGDPQPQGLQQQPSASGPRSSHASFPQPHLAGGQPFHGIQQPLAQTGMPPSFSKPNTEGAPGAPIGNTIQHVQALPTEKITKKPIPDEHLILKTTFEDLIQRCLSSATDPQTKRKLDDASKRLECLYDKLRDQTLSPTIISGLHSIARSIETRNYSEGLTVHTHIVSTSNFSETSAFMPVLKVVLSQASKLGV | binding [4]: binds
